Some of these results come from one statement about several compounds together. At least one read-out could not be matched to a standard name with certainty.
Columns and labels:
[1] = Half-life measurements in human skeletal muscle S9; format: in vitro ADME; settings: 1 mM, 7.96 mg/mL, FIG. 4
Experimental: (§1) To evaluate the hydrolysis rates of emtricitabine compounds 9-16, HPLC coupled with UV detection was used with the following method (0% to 100% acetonitrile in Et3NHOAc (50 mM, pH 8) gradient) over 10 minutes at a flow rate of 3 mL min^−1, held at 100% acetonitrile for 3 minutes, ramped down to 5% acetonitrile over 0.2 minutes and then held for 2.8 minutes. Male human plasma (Bioreclamation) or female human skeletal muscle S9 (7.96 mg/mL, Bioreclamation) was pre-incubated at 37° C. for 5 minutes. Compounds 9-16 (1 mM) were added and the reaction was incubated at 37° C. […] The supernatant was diluted 10 fold into Tris buffer (30 mM, pH 7.4) and injected onto the HPLC for analysis.
(§2) To evaluate the hydrolysis rates of emtricitabine trimethyl lock prodrugs, HPLC coupled with UV detection was used with the following method (0% to 100% acetonitrile in Et3NHOAc (50 mM, pH 8) gradient) over 10 minutes at a flow rate of 3 mL min^−1, held at 100% acetonitrile for 3 minutes, ramped down to 5% acetonitrile over 0.2 minutes and then held for 2.8 minutes. Human plasma (Bioreclamation) or human skeletal muscle S9 (7.96 mg/mL, Bioreclamation) was pre-incubated at 37° C. for 5 minutes. Emtricitabine trimethyl lock compound 25 (1 mM) was added and the reaction was incubated at 37° C. […] The supernatant was diluted in Tris buffer (100 mM, pH 7.4) and injected onto the HPLC for analysis.

[2] = Half-life measurements in human plasma (HPLC-UV); format: in vitro ADME; settings: 1 mM, FIG. 4
Experimental: as §1, §2
as §2, with “tenofovir alafenamide compound 26,” for “emtricitabine trimethyl lock prodrugs,”, “(Bioreclamation)” for “(Bioreclamation) or human skeletal muscle S9 (7.96 mg/mL, Bioreclamation)”, “Compound 26” for “Emtricitabine trimethyl lock compound 25”

SMILES | hydrolysis half-lives in female skeletal muscle S9 [1] | hydrolysis half-lives in human plasma [2]
COC(=O)Nc1nc(=O)n([C@@H]2CS[C@H](CO)O2)cc1F [Compound 9, methyl (5-fluoro-1-((2R,5S)-2-(hydroxymethyl)-1,3-oxathiolan-5-yl)-2-oxo-1,2-dihydropyrimidin-4-yl)carbamate] | long hydrolysis half-lives | long hydrolysis half-lives
CCCCCCCCOC(=O)Nc1nc(=O)n([C@@H]2CS[C@H](CO)O2)cc1F [Compound 16, octyl (5-fluoro-1-((2R,5S)-2-(hydroxymethyl)-1,3-oxathiolan-5-yl)-2-oxo-1,2-dihydropyrimidin-4-yl)carbamate] | long hydrolysis half-lives | long hydrolysis half-lives
CCCCOC(=O)Nc1nc(=O)n([C@@H]2CS[C@H](CO)O2)cc1F [Compound 12, butyl (5-fluoro-1-((2R,5S)-2-(hydroxymethyl)-1,3-oxathiolan-5-yl)-2-oxo-1,2-dihydropyrimidin-4-yl)carbamate] | long hydrolysis half-lives | long hydrolysis half-lives
CCOC(=O)Nc1nc(=O)n([C@@H]2CS[C@H](CO)O2)cc1F [Compound 10, ethyl (5-fluoro-1-((2R,5S)-2-(hydroxymethyl)-1,3-oxathiolan-5-yl)-2-oxo-1,2-dihydropyrimidin-4-yl)carbamate] | long hydrolysis half-lives | long hydrolysis half-lives
CCCOC(=O)Nc1nc(=O)n([C@@H]2CS[C@H](CO)O2)cc1F [Compound 11, propyl (5-fluoro-1-((2R,5S)-2-(hydroxymethyl)-1,3-oxathiolan-5-yl)-2-oxo-1,2-dihydropyrimidin-4-yl)carbamate] | long hydrolysis half-lives | long hydrolysis half-lives

The remaining lines, values ahead:

hydrolysis half-lives in female skeletal muscle S9 [1] | hydrolysis half-lives in human plasma [2] | SMILES
long hydrolysis half-lives | long hydrolysis half-lives | CCCCCOC(=O)Nc1nc(=O)n([C@@H]2CS[C@H](CO)O2)cc1F [Compound 13, pentyl (5-fluoro-1-((2R,5S)-2-(hydroxymethyl)-1,3-oxathiolan-5-yl)-2-oxo-1,2-dihydropyrimidin-4-yl)carbamate]
long hydrolysis half-lives | long hydrolysis half-lives | CCCCCCOC(=O)Nc1nc(=O)n([C@@H]2CS[C@H](CO)O2)cc1F [Compound 14, hexyl (5-fluoro-1-((2R,5S)-2-(hydroxymethyl)-1,3-oxathiolan-5-yl)-2-oxo-1,2-dihydropyrimidin-4-yl)carbamate]
long hydrolysis half-lives | long hydrolysis half-lives | CCCCCCCOC(=O)Nc1nc(=O)n([C@@H]2CS[C@H](CO)O2)cc1F [Compound 15, heptyl (5-fluoro-1-((2R,5S)-2-(hydroxymethyl)-1,3-oxathiolan-5-yl)-2-oxo-1,2-dihydropyrimidin-4-yl)carbamate]

Reference: patent US11498933B2, “Prodrug compositions” (The University of Liverpool, priority 2017, dated 2022)
